Measured values reported in the supplement of paper PMC10849652.
This is one part of the list.

Amino acid sequences for entries named in this document (tags omitted). A change or cut given only in a name is not applied to a line headed by its entry.
UniProt P05386, whole entry, looked up: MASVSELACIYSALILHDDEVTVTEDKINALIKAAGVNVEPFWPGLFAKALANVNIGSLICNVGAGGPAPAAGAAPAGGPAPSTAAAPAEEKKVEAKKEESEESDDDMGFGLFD
UniProt P31350, whole entry, looked up: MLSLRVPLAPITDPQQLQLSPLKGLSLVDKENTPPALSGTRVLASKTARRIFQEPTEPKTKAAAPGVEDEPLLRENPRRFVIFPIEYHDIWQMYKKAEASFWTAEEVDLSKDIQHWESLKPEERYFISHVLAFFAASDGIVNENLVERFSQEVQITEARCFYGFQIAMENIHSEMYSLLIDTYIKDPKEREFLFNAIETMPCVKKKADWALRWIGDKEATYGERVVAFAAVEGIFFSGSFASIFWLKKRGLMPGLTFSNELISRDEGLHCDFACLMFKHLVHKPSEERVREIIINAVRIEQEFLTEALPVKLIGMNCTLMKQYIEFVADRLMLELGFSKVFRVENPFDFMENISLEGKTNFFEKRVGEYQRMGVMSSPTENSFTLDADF
UniProt P23921: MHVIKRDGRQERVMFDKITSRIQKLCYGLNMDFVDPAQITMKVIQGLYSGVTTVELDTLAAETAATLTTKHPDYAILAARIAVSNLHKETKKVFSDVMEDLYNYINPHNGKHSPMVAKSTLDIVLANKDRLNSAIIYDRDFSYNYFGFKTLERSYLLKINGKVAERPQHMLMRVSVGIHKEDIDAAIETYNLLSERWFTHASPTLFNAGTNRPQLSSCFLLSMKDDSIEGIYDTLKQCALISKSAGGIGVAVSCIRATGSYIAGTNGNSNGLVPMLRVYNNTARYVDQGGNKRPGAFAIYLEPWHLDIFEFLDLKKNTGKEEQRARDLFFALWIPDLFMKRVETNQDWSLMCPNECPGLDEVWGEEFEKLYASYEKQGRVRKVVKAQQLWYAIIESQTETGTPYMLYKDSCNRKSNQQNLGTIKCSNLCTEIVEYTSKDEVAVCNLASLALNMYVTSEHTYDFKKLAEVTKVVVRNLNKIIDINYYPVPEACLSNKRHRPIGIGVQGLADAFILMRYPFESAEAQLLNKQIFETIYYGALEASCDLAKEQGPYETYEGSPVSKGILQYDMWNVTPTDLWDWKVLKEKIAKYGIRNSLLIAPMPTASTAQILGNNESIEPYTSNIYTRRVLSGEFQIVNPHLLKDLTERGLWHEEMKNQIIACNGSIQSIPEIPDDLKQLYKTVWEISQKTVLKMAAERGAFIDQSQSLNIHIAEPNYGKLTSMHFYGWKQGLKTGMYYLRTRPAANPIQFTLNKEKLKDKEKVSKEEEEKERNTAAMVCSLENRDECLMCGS
UniProt P15927: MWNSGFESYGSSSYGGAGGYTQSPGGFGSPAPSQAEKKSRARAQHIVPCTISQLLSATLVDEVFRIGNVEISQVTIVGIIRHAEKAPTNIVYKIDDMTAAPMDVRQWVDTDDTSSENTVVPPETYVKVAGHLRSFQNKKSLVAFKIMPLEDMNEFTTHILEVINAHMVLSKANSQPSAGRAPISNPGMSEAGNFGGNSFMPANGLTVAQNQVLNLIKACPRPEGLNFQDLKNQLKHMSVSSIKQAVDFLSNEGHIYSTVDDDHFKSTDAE
UniProt Q8IZ73: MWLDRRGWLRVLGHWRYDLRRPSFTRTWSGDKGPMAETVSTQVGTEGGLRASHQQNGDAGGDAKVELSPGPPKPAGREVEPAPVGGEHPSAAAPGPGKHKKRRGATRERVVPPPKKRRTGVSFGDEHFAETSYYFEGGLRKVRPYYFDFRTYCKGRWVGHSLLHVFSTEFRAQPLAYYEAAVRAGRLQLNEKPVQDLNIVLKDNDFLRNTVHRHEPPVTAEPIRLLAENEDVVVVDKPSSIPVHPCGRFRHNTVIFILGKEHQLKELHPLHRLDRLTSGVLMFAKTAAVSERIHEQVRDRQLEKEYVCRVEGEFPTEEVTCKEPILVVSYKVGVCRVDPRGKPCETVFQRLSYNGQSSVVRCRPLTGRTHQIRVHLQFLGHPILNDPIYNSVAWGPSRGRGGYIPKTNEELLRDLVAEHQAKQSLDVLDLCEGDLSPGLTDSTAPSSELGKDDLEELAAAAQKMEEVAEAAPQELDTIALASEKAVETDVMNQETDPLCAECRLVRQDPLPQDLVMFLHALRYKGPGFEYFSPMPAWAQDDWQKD
UniProt Q86WX3: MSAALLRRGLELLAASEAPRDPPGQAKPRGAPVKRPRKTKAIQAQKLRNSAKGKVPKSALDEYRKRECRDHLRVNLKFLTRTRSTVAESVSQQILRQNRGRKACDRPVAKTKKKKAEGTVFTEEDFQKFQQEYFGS
UniProt P05387, whole entry, looked up: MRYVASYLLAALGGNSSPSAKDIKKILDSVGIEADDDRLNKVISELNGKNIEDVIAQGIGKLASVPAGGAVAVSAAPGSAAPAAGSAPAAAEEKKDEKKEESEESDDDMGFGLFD
UniProt P10301: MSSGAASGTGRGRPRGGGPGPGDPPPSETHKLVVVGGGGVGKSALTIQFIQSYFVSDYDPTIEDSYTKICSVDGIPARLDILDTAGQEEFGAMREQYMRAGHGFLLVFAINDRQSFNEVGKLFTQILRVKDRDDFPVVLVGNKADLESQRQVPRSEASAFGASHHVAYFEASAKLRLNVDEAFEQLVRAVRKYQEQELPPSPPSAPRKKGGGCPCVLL
UniProt Q96BH1: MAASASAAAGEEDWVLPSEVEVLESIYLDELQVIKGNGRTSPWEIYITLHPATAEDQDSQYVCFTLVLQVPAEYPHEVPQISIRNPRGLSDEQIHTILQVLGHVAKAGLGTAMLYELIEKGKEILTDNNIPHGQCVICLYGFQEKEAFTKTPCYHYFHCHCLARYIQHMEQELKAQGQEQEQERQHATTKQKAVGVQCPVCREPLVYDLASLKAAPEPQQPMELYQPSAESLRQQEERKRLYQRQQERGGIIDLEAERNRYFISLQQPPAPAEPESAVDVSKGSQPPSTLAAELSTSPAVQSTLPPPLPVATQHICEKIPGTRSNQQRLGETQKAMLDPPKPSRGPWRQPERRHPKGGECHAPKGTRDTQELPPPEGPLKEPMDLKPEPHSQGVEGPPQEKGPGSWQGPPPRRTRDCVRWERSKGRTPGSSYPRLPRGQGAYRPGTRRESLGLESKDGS
UniProt P27694, whole entry, looked up: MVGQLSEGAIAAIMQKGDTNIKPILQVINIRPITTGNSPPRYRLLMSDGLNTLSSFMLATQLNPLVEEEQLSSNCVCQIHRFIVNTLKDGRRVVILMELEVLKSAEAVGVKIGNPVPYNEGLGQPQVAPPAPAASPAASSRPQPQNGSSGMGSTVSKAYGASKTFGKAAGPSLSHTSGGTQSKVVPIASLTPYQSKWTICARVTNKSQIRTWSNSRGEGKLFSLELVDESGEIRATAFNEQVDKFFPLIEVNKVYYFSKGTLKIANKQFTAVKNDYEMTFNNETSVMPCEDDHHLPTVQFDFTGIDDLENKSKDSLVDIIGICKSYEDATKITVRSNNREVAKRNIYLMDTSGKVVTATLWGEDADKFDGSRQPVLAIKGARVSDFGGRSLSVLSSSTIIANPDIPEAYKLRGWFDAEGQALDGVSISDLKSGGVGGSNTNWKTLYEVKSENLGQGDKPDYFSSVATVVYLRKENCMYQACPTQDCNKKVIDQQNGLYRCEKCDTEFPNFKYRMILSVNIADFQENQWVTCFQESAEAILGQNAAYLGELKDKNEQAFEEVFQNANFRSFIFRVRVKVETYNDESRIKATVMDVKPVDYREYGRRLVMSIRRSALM
UniProt Q8N122, whole entry, looked up: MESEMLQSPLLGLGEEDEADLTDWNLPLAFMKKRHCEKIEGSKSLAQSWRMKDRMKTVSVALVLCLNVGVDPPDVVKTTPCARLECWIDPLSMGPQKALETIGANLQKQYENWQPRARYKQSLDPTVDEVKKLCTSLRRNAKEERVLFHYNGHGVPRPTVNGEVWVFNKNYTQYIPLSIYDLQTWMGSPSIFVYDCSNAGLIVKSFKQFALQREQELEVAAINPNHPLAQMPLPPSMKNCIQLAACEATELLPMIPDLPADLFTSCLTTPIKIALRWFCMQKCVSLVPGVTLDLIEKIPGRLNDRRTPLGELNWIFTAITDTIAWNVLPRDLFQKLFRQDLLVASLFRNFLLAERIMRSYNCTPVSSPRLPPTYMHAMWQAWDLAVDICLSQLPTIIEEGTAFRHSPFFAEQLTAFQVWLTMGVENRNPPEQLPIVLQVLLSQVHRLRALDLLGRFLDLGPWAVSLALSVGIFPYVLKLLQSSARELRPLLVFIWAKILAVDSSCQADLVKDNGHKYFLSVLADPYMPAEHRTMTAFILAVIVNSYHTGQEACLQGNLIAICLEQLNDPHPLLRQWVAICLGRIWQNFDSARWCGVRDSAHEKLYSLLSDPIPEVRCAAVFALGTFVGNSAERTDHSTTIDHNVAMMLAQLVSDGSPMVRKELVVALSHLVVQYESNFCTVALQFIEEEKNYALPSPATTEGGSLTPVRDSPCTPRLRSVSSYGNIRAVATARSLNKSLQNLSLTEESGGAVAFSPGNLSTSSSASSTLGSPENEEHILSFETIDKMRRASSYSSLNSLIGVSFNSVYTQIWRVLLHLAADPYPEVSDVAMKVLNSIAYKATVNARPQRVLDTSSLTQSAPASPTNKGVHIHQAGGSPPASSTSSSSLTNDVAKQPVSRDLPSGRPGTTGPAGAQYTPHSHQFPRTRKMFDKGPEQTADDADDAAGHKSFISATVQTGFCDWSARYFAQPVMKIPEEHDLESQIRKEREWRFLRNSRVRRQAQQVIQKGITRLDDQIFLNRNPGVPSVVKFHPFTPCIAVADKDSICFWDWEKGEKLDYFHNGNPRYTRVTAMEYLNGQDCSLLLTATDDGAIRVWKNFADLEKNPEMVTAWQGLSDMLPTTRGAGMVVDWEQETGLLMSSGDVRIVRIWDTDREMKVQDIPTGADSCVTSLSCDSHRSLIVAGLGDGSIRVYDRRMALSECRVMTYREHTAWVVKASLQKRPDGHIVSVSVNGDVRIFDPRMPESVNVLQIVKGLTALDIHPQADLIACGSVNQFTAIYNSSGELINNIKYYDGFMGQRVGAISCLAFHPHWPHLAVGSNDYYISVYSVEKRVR
UniProt Q9UBF6, whole entry, looked up: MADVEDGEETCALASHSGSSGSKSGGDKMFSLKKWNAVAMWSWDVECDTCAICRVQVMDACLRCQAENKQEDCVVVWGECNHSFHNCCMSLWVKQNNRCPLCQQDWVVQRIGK
UniProt Q15418, whole entry, looked up: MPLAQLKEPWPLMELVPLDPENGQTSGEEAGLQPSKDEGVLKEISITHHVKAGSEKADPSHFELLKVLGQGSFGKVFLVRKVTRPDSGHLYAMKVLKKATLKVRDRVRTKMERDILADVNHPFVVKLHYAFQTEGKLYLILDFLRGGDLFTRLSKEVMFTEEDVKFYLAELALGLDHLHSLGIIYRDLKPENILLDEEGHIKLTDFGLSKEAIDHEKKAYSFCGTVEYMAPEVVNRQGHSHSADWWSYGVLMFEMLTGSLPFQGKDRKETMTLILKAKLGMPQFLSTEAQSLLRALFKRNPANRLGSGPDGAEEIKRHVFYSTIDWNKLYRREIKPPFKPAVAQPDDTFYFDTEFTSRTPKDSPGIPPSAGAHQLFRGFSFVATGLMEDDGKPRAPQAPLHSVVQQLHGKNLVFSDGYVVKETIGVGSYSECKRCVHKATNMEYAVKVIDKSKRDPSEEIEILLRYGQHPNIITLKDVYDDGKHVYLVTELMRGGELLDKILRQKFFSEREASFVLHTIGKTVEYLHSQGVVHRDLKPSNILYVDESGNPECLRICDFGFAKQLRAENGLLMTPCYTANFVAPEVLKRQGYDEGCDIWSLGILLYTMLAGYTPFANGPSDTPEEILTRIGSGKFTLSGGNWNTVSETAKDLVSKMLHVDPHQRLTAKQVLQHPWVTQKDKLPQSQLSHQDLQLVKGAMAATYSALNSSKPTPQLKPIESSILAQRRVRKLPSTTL
UniProt Q5VZM2, whole entry, looked up: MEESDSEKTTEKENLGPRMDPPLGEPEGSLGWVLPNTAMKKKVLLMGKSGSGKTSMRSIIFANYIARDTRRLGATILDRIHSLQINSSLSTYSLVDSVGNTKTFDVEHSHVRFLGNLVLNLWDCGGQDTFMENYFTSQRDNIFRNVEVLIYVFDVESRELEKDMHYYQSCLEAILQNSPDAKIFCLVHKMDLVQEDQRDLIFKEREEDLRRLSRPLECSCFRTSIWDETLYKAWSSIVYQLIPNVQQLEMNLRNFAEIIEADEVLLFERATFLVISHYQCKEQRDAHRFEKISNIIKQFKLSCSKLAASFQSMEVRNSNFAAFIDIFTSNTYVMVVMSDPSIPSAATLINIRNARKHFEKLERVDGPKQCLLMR

Assays:
Test in all cases: log2 fold change, soluble protein after heating vs DMSO (PISA); higher = thermal stabilisation; K562 cells, 10 uM, 30 min; active = over 0.2 and 3.5 SD of the protein, either way, in both replicates (recomputed)
[1] = compound: COC1=CC=C(C=C1)CN2C=CC3=C2C=C(C=C3)C(=O)NO
Outline: (§1)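 For each measurement, 10 μM compound was applied for 30 min to K562 cells at 2×10^6 cells/mL. Aliquots were heated for 3 min across 48°C-58°C, pooled, and extracted in PBS with 0.5% NP-40 at 4°C; the supernatant after 21,000xg for 90 min was soluble protein. This was quantified by TMTpro 16plex LC-MS/MS with channel sums equalised, and thermal stability was reported relative to control samples from duplicates, on a log2 fold-change scale.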

filanesib = compound: CON(C)C(=O)N1N=C(c2cc(F)ccc2F)S[C@@]1(CCCN)c1ccccc1 [filanesib]
Outline: as §1

zotarolimus = compound: CO[C@H]1C[C@@H]2CC[C@@H](C)[C@@](O)(O2)C(=O)C(=O)N2CCCC[C@H]2C(=O)O[C@H]([C@H](C)C[C@@H]2CC[C@H](n3cnnn3)[C@H](OC)C2)CC(=O)[C@H](C)/C=C(\C)[C@@H](O)[C@@H](OC)C(=O)[C@H](C)C[C@H](C)/C=C/C=C/C=C/1C [zotarolimus]
Outline: as §1

idasanutlin = compound: COc1cc(C(=O)O)ccc1NC(=O)[C@@H]1N[C@@H](CC(C)(C)C)[C@](C#N)(c2ccc(Cl)cc2F)[C@H]1c1cccc(Cl)c1F [idasanutlin]
Outline: as §1

alisertib = compound: COc1cc(Nc2ncc3c(n2)-c2ccc(Cl)cc2C(c2c(F)cccc2OC)=NC3)ccc1C(=O)O [alisertib]
Outline: as §1

[2] = compound: COc1cc2nc(-c3cc(F)ccc3O)nc(N[C@@H]3CNC[C@H]3C(C)(C)O)c2cc1OC
Outline: as §1

gefitinib = compound: COc1cc2ncnc(Nc3ccc(F)c(Cl)c3)c2cc1OCCCN1CCOCC1 [gefitinib]
Outline: as §1

[3] = compound: COc1cccc2cc(-c3nc([C@H]4CC[C@H](C(=O)O)CC4)n4ncnc(N)c34)[nH]c12
Outline: as §1

lapatinib = compound: CS(=O)(=O)CCNCc1ccc(-c2ccc3ncnc(Nc4ccc(OCc5cccc(F)c5)c(Cl)c4)c3c2)o1 [lapatinib]
Outline: as §1

pictilisib = compound: CS(=O)(=O)N1CCN(Cc2cc3nc(-c4cccc5[nH]ncc45)nc(N4CCOCC4)c3s2)CC1 [pictilisib]
Outline: as §1

Measured: log2 fold change

RPS29 (UniProt P62273)
inactive: [1] 0.025 | filanesib 0.138 | zotarolimus -0.017 | idasanutlin 0.273 | alisertib -0.211 | [2] -0.082 | gefitinib -0.035 | [3] -0.382 | lapatinib 0.043 | pictilisib -0.147

RPLP0 (UniProt P05388)
inactive: [1] -0.097 | filanesib 0.614 | zotarolimus 0.002 | idasanutlin 0.27 | alisertib -0.168 | [2] -0.194 | gefitinib -0.074 | [3] -0.382 | lapatinib 0.364 | pictilisib -0.148

RPLP1 (UniProt P05386)
inactive: [1] -0.27 | filanesib 0.684 | zotarolimus 0.193 | idasanutlin 0.321 | alisertib -0.143 | [2] -0.369 | gefitinib -0.013 | [3] -0.243 | lapatinib 0.228 | pictilisib -0.114

RRM2 isoform 2 (UniProt P31350)
inactive: [1] -0.1 | filanesib -0.04 | zotarolimus 0.019 | idasanutlin 0.004 | alisertib -0.037 | [2] -0.038 | gefitinib 0.002 | [3] 0.016 | lapatinib 0.027 | pictilisib 0.02

RPL11 (UniProt P62913)
inactive: [1] -0.094 | filanesib 0.644 | zotarolimus -0.006 | idasanutlin 0.248 | alisertib -0.124 | [2] -0.094 | gefitinib -0.055 | [3] -0.442 | lapatinib 0.266 | pictilisib -0.206

RPS28 (UniProt P62857)
inactive: [1] -0.035 | filanesib 0.108 | zotarolimus -0.16 | idasanutlin 0.096 | alisertib -0.049 | [2] -0.071 | gefitinib 0.032 | [3] -0.008 | lapatinib -0.002 | pictilisib -0.027

RRM1 (UniProt P23921)
inactive: [1] 0.022 | filanesib -0.09 | zotarolimus -0.041 | idasanutlin -0.022 | alisertib 0.006 | [2] -0.02 | gefitinib -0.043 | [3] 0.062 | lapatinib -0.009 | pictilisib 0.06

RPA2 isoform 3 (UniProt P15927)
inactive: [1] -0.026 | filanesib 0.009 | zotarolimus -0.005 | idasanutlin -0.014 | alisertib -0.024 | [2] 0.03 | gefitinib -0.011 | [3] -0.041 | lapatinib -0.096 | pictilisib -0.049

RPL27 (UniProt P61353)
inactive: [1] -0.007 | filanesib 0.486 | zotarolimus 0.088 | idasanutlin 0.255 | alisertib -0.126 | [2] -0.118 | gefitinib -0.072 | [3] -0.338 | lapatinib 0.306 | pictilisib -0.189

RPL36AL (UniProt Q969Q0)
inactive: [1] 0.27 | filanesib 0.505 | zotarolimus 0.09 | idasanutlin 0.178 | alisertib -0.164 | [2] -0.218 | gefitinib -0.028 | [3] -0.305 | lapatinib 0.303 | pictilisib -0.25

RPUSD2 (UniProt Q8IZ73)
inactive: [1] 0.019 | filanesib -0.019 | zotarolimus 0.023 | idasanutlin 0.008 | alisertib -0.161 | [2] 0.043 | gefitinib 0.017 | [3] 0.008 | lapatinib 0.009 | pictilisib -0.005

RPL35A (UniProt P18077)
inactive: [1] -0.123 | filanesib 0.857 | zotarolimus -0.008 | idasanutlin 0.342 | alisertib -0.201 | [2] -0.136 | gefitinib -0.065 | [3] -0.423 | lapatinib 0.363 | pictilisib -0.204

RPS4X (UniProt P62701)
inactive: [1] -0.059 | filanesib 0.314 | zotarolimus -0.001 | idasanutlin 0.148 | alisertib -0.099 | [2] -0.038 | gefitinib -0.048 | [3] -0.222 | lapatinib 0.102 | pictilisib -0.155

RPL7 (UniProt P18124)
inactive: [1] -0.104 | filanesib 0.799 | zotarolimus 0.033 | idasanutlin 0.369 | alisertib -0.157 | [2] -0.151 | gefitinib -0.071 | [3] -0.477 | lapatinib 0.384 | pictilisib -0.215

RPS26 (UniProt P62854)
inactive: [1] -0.013 | filanesib 0.473 | zotarolimus 0.013 | idasanutlin 0.147 | alisertib -0.288 | [2] -0.085 | gefitinib -0.068 | [3] -0.277 | lapatinib 0.218 | pictilisib -0.141

RPS25 (UniProt P62851)
inactive: [1] 0.006 | filanesib 0.145 | zotarolimus -0.015 | idasanutlin 0.061 | alisertib -0.143 | [2] -0.038 | gefitinib -0.022 | [3] -0.198 | lapatinib 0.038 | pictilisib -0.08

RPS19BP1 (UniProt Q86WX3)
inactive: [1] -0.343 | filanesib 0.362 | zotarolimus 0.009 | idasanutlin 0.131 | alisertib -0.16 | [2] 0.021 | gefitinib 0.071 | [3] -0.304 | lapatinib 0.087 | pictilisib -0.01

RPLP2 (UniProt P05387)
inactive: [1] -0.099 | filanesib 0.606 | zotarolimus 0.138 | idasanutlin 0.272 | alisertib -0.107 | [2] -0.256 | gefitinib -0.095 | [3] -0.315 | lapatinib 0.256 | pictilisib -0.159

RPS23 (UniProt P62266)
inactive: [1] -0.022 | filanesib 0.408 | zotarolimus 0.046 | idasanutlin 0.208 | alisertib -0.137 | [2] -0.06 | gefitinib -0.068 | [3] -0.266 | lapatinib 0.173 | pictilisib -0.078

RPLP0 (UniProt F8VWV4)
inactive: [1] -0.183 | filanesib -0.045 | zotarolimus -0.114 | idasanutlin 0.477

RRAS (UniProt P10301)
inactive: [1] -0.019 | filanesib 0.038 | zotarolimus -0.056 | idasanutlin -0.039 | alisertib -0.071 | [2] 0.063 | gefitinib 0.024 | [3] 0.047 | lapatinib -0.029 | pictilisib -0.009

RNF25 (UniProt Q96BH1)
inactive: [1] 0.113 | filanesib -0.063 | zotarolimus 0.033 | idasanutlin -0.027 | alisertib 0.013 | [2] -0.012 | gefitinib -0.015 | [3] 0.05 | lapatinib -0.017 | pictilisib 0.064

RPA1 (UniProt P27694)
inactive: [1] 0.053 | filanesib -0.006 | zotarolimus 0.018 | idasanutlin -0.042 | alisertib 0.027 | [2] 0.049 | gefitinib -0.001 | [3] -0.133 | lapatinib 0.006 | pictilisib -0.088

RPL17 isoform 3 (UniProt P18621)
inactive: [1] -0.007 | filanesib 0.37 | zotarolimus 0.013 | idasanutlin 0.256 | alisertib -0.169 | [2] -0.115 | gefitinib -0.038 | [3] -0.271 | lapatinib 0.215 | pictilisib -0.019

RPL10A (UniProt P62906)
inactive: [1] -0.12 | filanesib 0.741 | zotarolimus 0.07 | idasanutlin 0.349 | alisertib -0.139 | [2] -0.149 | gefitinib -0.064 | [3] -0.392 | lapatinib 0.373 | pictilisib -0.185

Reprinted from above (nine entries):
RPS26 (UniProt P62854)
inactive: [1] -0.013 | filanesib 0.473 | zotarolimus 0.013 | idasanutlin 0.147 | alisertib -0.288 | [2] -0.085 | gefitinib -0.068 | [3] -0.277 | lapatinib 0.218 | pictilisib -0.141

RPS25 (UniProt P62851)
inactive: [1] 0.006 | filanesib 0.145 | zotarolimus -0.015 | idasanutlin 0.061 | alisertib -0.143 | [2] -0.038 | gefitinib -0.022 | [3] -0.198 | lapatinib 0.038 | pictilisib -0.08

RPS19BP1 (UniProt Q86WX3)
inactive: [1] -0.343 | filanesib 0.362 | zotarolimus 0.009 | idasanutlin 0.131 | alisertib -0.16 | [2] 0.021 | gefitinib 0.071 | [3] -0.304 | lapatinib 0.087 | pictilisib -0.01

RPLP2 (UniProt P05387)
inactive: [1] -0.099 | filanesib 0.606 | zotarolimus 0.138 | idasanutlin 0.272 | alisertib -0.107 | [2] -0.256 | gefitinib -0.095 | [3] -0.315 | lapatinib 0.256 | pictilisib -0.159

RPS23 (UniProt P62266)
inactive: [1] -0.022 | filanesib 0.408 | zotarolimus 0.046 | idasanutlin 0.208 | alisertib -0.137 | [2] -0.06 | gefitinib -0.068 | [3] -0.266 | lapatinib 0.173 | pictilisib -0.078

RPLP0 (UniProt F8VWV4)
inactive: [1] -0.183 | filanesib -0.045 | zotarolimus -0.114 | idasanutlin 0.477

RRAS (UniProt P10301)
inactive: [1] -0.019 | filanesib 0.038 | zotarolimus -0.056 | idasanutlin -0.039 | alisertib -0.071 | [2] 0.063 | gefitinib 0.024 | [3] 0.047 | lapatinib -0.029 | pictilisib -0.009

RNF25 (UniProt Q96BH1)
inactive: [1] 0.113 | filanesib -0.063 | zotarolimus 0.033 | idasanutlin -0.027 | alisertib 0.013 | [2] -0.012 | gefitinib -0.015 | [3] 0.05 | lapatinib -0.017 | pictilisib 0.064

RPA1 (UniProt P27694)
inactive: [1] 0.053 | filanesib -0.006 | zotarolimus 0.018 | idasanutlin -0.042 | alisertib 0.027 | [2] 0.049 | gefitinib -0.001 | [3] -0.133 | lapatinib 0.006 | pictilisib -0.088

(listing goes on)

RPL22L1 (UniProt Q6P5R6)
inactive: [1] 0.13 | filanesib 0.065

RPSA (UniProt P08865)
inactive: [1] -0.059 | filanesib 0.076 | zotarolimus -0.031 | idasanutlin 0.017 | alisertib -0.106 | [2] 0.019 | gefitinib 0 | [3] -0.093 | lapatinib 0.036 | pictilisib 0

RPTOR (UniProt Q8N122)
inactive: [1] 0.042 | filanesib -0.077 | zotarolimus -0.194 | idasanutlin -0.066 | alisertib -0.054 | [2] -0.056 | gefitinib 0.007 | [3] -0.072 | lapatinib 0.028 | pictilisib -0.022

RNF7 (UniProt Q9UBF6)
inactive: [1] 0.008 | filanesib -0.023 | zotarolimus 0.03 | idasanutlin -0.062 | alisertib 0.061 | [2] -0.013 | gefitinib -0.013 | [3] -0.056 | lapatinib 0.057 | pictilisib -0.029

RPS6KA1 isoform 2 (UniProt Q15418)
inactive: [1] 0.087 | filanesib -0.022 | zotarolimus 0.025 | idasanutlin -0.016 | alisertib -0.01 | [2] -0.202 | gefitinib -0.062 | [3] 0 | lapatinib 0.013 | pictilisib -0.053

RRAGB (UniProt Q5VZM2)
inactive: [1] -0.018 | filanesib -0.059 | zotarolimus -0.086 | idasanutlin -0.026 | alisertib -0.054 | [2] -0.078 | gefitinib -0.003 | [3] 0.053 | lapatinib 0.042 | pictilisib 0.052
